{"source": "patent US8637237B2", "about": "“Methods, compositions, and systems for the identification of species-specific or developmental stage-specific insecticides” (The University of North Carolina at Greensboro, priority 2003, dated 2014)", "molecular_target": "T1, FXR (Rattus norvegicus, UniProt Q62735)", "T1 sequence (Q62735 1-469)": "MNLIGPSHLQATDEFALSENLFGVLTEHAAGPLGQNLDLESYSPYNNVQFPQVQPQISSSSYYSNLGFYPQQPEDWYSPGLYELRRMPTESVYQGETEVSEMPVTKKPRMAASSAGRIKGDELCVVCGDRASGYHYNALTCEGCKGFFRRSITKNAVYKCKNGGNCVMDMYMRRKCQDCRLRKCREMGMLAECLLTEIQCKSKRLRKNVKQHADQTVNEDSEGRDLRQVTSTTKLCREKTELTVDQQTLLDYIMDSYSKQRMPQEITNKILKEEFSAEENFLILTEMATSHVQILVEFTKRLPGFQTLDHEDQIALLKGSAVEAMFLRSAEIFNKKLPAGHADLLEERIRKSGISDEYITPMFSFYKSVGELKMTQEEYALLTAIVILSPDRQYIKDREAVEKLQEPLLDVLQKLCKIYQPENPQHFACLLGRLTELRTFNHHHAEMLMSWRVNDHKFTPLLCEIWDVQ", "T1 sequence (P28700 1-467 partner)": "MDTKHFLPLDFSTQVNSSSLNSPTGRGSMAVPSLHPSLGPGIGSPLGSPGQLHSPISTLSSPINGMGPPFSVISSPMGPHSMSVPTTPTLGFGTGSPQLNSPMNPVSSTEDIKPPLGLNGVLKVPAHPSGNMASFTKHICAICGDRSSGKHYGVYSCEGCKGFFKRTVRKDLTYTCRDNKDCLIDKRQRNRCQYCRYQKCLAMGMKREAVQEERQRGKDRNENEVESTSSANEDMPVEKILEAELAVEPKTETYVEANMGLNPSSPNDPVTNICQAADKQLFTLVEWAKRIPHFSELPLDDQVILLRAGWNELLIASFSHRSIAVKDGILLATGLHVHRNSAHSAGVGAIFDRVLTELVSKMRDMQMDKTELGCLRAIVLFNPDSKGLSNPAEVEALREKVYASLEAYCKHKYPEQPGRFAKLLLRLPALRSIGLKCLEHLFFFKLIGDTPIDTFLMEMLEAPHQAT", "procedure": "These experiments employed a mammalian cell culture system using Chinese hamster ovary cells (CHO) to evaluate the transcriptional function of Drosophila melanogaster EcR and USP using methods described previously (U.S. Patent Application Publication No: 2005/0049230; Henrich et al, 2003). Cells were seeded in 6-well polypropylene culture plates (Falcon) with 10^5 cells per well on the day prior to transfection. Transfection was subsequently performed using either calcium phosphate (Kitareewan et al., 1996, Mol. Biol. Cell, 7:1153-1196) or a GenePorter reagent (Gene Therapy Systems, Inc; San Diego, Calif.) following manufacturer's protocols. Each well received 1.25 μg of (EcRE)5-ΔMTV-CAT (five copies of the hsp27 EcRE inserted into an mouse mammary tumor virus (MTV) promoter upstream of the chloramphenicol acetyltransferase (CAT) gene) or (EcRE)5-ΔMTV-LUC (the same promoter attached to firefly luciferase), 1.25 μg of pCH111 (SV40 early promoter linked to the β-galactosidase gene) to normalize CAT activity, and 0.25 μg of each expression plasmid (EcR, FXR, RXR, USP) that was tested. The cells were incubated with plasmid DNA for seven hours and then washed with 1×PBS. Muristerone A (murA; Alexis Biochemicals) or 20-hydroxyecdysone (20E; Sigma) dissolved in ethanol to a concentration of 10 mM was diluted as necessary to the final assay concentration (FAC) in 2 ml of fresh incubation medium that was then applied to the cells. Similarly, JHIII (Sigma) was dissolved in dimethyl sulfoxide (DMSO) to a concentration of […] and diluted into the incubation medium to its final assay concentration (20, 40, 80, 160 μM). […] A corresponding volume of ethanol and DMSO were added to control cells for all experiments. For all experiments, the cells were allowed to incubate with the medium for 24 hours before collection and cell lysates were prepared by described methods (Kitareewan et al., 1996). Both β-galactosidase and CAT reporter activity were measured based on previously used methods (Kitareewan et al, 1996). Luciferase assays using luciferrin followed the specifications of the manufacturer.\nTranscriptional activity, measured as ^14C-chloramphenicol counts (for measuring CAT activity) or relative luciferase activity (RLU) was quantified for each cell lysate. The counts were then normalized by adjusting for differences in β-galactosidase activity, since β-galactosidase expression is controlled by a constitutive promoter and provides an estimate of cell mass. Data were normalized as fold-induction based on differences in reporter gene activity between hormonally treated and control cells.\nIn these experiments, candidate juvenoids were tested for their ability to activate FXR mediated transcription by transfecting Chinese hamster ovary (CHO) cells using the FXR plasmid, mouse RXRα, and the ΔMTV-(EcRE)5-CAT reporter as described herein. An RXR-dependent CRBPII-CAT reporter plasmid was employed in parallel assays to discern activators specific for this receptor.", "note": "Where two headings read alike, the source gives them in different places. At least one structure is not confirmed: it was looked up by name or label, or the drawing left a doubt."}
{"smiles": "O=C(/C=C/C=C/c1ccc2c(c1)OCO2)N1CCCCC1", "note": "[piperine]", "values": [{"measurement": "FXR-dependent CAT activity, induction", "setting": "50 μM", "result": 4, "unit": "fold"}, {"measurement": "FXR ACTIVITY (fold-induction)", "setting": "dose 50 μM", "result": 4, "unit": "fold-induction"}]}
{"smiles": "CC(C)=CCC1C(=O)C(C(=O)CC(C)C)=C(O)C(O)(CC=C(C)C)C1=O", "note": "(stereo not drawn) [Humulone]", "values": [{"measurement": "FXR-dependent CAT activity, induction", "setting": "20 μM", "result": 8, "unit": "fold"}, {"measurement": "FXR ACTIVITY (fold-induction)", "setting": "dose 20 μM, 1 = no increase over vehicle", "result": 8, "unit": "fold-induction"}]}
{"smiles": "C=CCc1ccc(OC)c(OC)c1", "note": "[methyleugenol]", "values": [{"measurement": "FXR-dependent CAT activity, induction", "setting": "250 μM", "result": 4, "unit": "fold"}, {"measurement": "FXR ACTIVITY (fold-induction)", "setting": "dose 250 μM, 1 = no increase over vehicle", "result": 4, "unit": "fold-induction"}]}
